Assay results published in PubChem BioAssay AID330 (DTP/NCI, 2004).
The list is a part of this screen's results and no random one: it is rich in T/C values a quarter to a half above the control, in often repeated tests (any T/C) and in doses without a T/C. Other doses and runs of a compound stand elsewhere. T/C is the treated group as % of the vehicle group. Some doses have a count of surviving animals in place of a T/C: the source files T/C as zero there, which appears to mark a toxic dose or a test without result, not a measured value. Some doses without a T/C left all or most animals alive at the check, yet need not have been tolerated: survival well below the control is almost never listed, so the zero probably covers shortened survival too. Counts of survivors are from the toxicity check (mostly the fifth day) where no day follows; animals may have died later. Schedule codes are those of the source, read here as Q, the interval in days (D) or hours (H), X, the number of doses. Some entries hold several experiments; the results are listed from low to high. For survival time, the PubChem record calls one and a half times the control and up active, and a quarter to a half above the control has no call in these data; cut-offs in other NCI protocols can differ. Some T/C values are followed by the survivors on the day toxicity was checked, most often the fifth; where none is given, no animal had died by that day.

Tested on: P388 leukemia ip, CD2F1 mice, survival T/C
Assay: NCI In Vivo Anticancer Drug Screen. Data for tumor model P388 Leukemia (intraperitoneal) in CD2F1 (CDF1) mice
Conditions: T/C endpoint: median survival time, higher T/C = longer survival
[1] = dose: 12.5 mg/kg/injection, schedule: Q01DX009 (ip), vehicle: Klucel (hydroxypropylcellulose) (HPC)
[2] = dose: 25.0 mg/kg/injection, schedule: Q01DX009 (ip), vehicle: Klucel (hydroxypropylcellulose) (HPC)
[3] = dose: 100.0 mg/kg/injection, schedule: Q01DX005 (ip), vehicle: saline with Tween-80
[4] = dose: 200.0 mg/kg/injection, schedule: Q01DX005 (ip), vehicle: saline with Tween-80
[5] = dose: 240.0 mg/kg/injection, schedule: Q01DX005 (ip), vehicle: saline with Tween-80
[6] = dose: 100.0 mg/kg/injection, schedule: Q01DX005 (ip), vehicle: Klucel (hydroxypropylcellulose) (HPC)
[7] = dose: 200.0 mg/kg/injection, schedule: Q01DX005 (ip), vehicle: Klucel (hydroxypropylcellulose) (HPC)
[8] = dose: 100.0 mg/kg/injection, schedule: Q04DX003 (ip), vehicle: saline with Tween-80
[9] = dose: 200.0 mg/kg/injection, schedule: Q01DX005 (ip), vehicle: saline
[10] = dose: 50.0 mg/kg/injection, schedule: Q01DX009 (ip), vehicle: Klucel (hydroxypropylcellulose) (HPC)
[11] = dose: 100.0 mg/kg/injection, schedule: Q01DX009 (ip), vehicle: Klucel (hydroxypropylcellulose) (HPC)
[12] = dose: 200.0 mg/kg/injection, schedule: Q01DX009 (ip), vehicle: Klucel (hydroxypropylcellulose) (HPC)
[13] = dose: 50.0 mg/kg/injection, schedule: Q01DX009 (ip), vehicle: saline with Tween-80
[14] = dose: 50.0 mg/kg/injection, schedule: Q01DX009 (ip), vehicle: saline
[15] = dose: 100.0 mg/kg/injection, schedule: Q01DX009 (ip), vehicle: saline
[16] = dose: 200.0 mg/kg/injection, schedule: Q01DX009 (ip), vehicle: saline
[17] = dose: 400.0 mg/kg/injection, schedule: Q01DX001 (ip), vehicle: saline with Tween-80
[18] = dose: 100.0 mg/kg/injection, schedule: Q01DX009 (ip), vehicle: saline with Tween-80
[19] = dose: 200.0 mg/kg/injection, schedule: Q01DX009 (ip), vehicle: saline with Tween-80
[20] = dose: 240.0 mg/kg/injection, schedule: Q01DX005 (ip), vehicle: Klucel (hydroxypropylcellulose) (HPC)

## COc1cc2c(c(OC)c1OC)-c1ccc(NCc3ccccc3)c(=O)cc1[C@@H](NC(C)=O)CC2
dose: 6.25 mg/kg/injection, schedule: Q01DX009 (ip), vehicle: Klucel (hydroxypropylcellulose) (HPC)
  T/C: 125 and 127 % of control
[1]
  T/C: 148 % of control
[2]
  survivor count: 1 of 6, 3 of 6, 4 of 6

## Clc1ccccc1C(Nc1cnccn1)Nc1cnccn1
[3]
  T/C: 128 % of control
[4]
  T/C: 145 % of control

## N#Cc1ccc(NN=O)nc1
dose: 6.25 mg/kg/injection, schedule: Q01DX009 (ip), vehicle: water
  T/C: 135 % of control
dose: 50.0 mg/kg/injection, schedule: Q01DX009 (ip), vehicle: water
  survivor count: 5 of 6

## O=[N+]([O-])c1cc(CN(CCO)CCO)c(O)c2ncccc12
[5]
  survivor count: 0 of 6

## O=C(NC(Cc1c[nH]c2ccccc12)C(=O)NC(Cc1ccccc1)C(=O)O)OCc1ccccc1 (configuration not stated)
[6]
  survivor count: 6 of 6
[7]
  survivor count: 6 of 6

## c1ccc2c(c1)Sc1ccccc1N2CCCNC1=NCCO1
[8]
  survivor count: 6 of 6

## CCOC1(C)OC2OC(COC(c3ccccc3)(c3ccccc3)c3ccccc3)C(OC(=O)c3ccccc3)C(OC(=O)c3ccccc3)C2O1 (configuration not stated)
dose: 100.0 mg/kg/injection, schedule: Q01DX009 (ip), vehicle: distilled water + Tween-80
  survivor count: 6 of 6
dose: 200.0 mg/kg/injection, schedule: Q01DX009 (ip), vehicle: distilled water + Tween-80
  survivor count: 6 of 6

## CCOC(=O)C(Cc1ccc(N(CCCl)CCCl)cc1)NC(=O)C(C)NC(C)=O (configuration not stated)
dose: 20.0 mg/kg/injection, schedule: Q04DX003 (ip), vehicle: water
  T/C: 127 and 128 % of control
dose: 40.0 mg/kg/injection, schedule: Q04DX003 (ip), vehicle: water
  T/C: 136 % of control

## CNC(=O)Nc1[nH]c(=O)ncc1Cl
[5]
  survivor count: 4 of 6

## CC1=CC[N+](C)(C)C(C(N)=O)C1 (configuration not stated)
[9]
  survivor count: 3 of 5

## N#CC(C#N)=NNc1c(Br)cc(Cl)cc1Br
[1]
  survivor count: 0 of 6
[2]
  survivor count: 0 of 6
[10]
  survivor count: 0 of 6
[11]
  survivor count: 0 of 6
[12]
  survivor count: 0 of 6

## CCc1ccc(-n2c(C)nc3[nH]cc(C)c3c2=N)cc1
[6]
  survivor count: 1 of 6
[7]
  survivor count: 0 of 6

## COC(=O)C1CC2CCCCC2CC1OC(C)=O (configuration not stated)
[13]
  T/C: 126 % of control

## O=C1CCSc2ccccc21
dose: 400.0 mg/kg/injection, schedule: Q01DX009 (ip), vehicle: saline with Tween-80
  survivor count: 2 of 6

## COc1ccc(CCN2C(=O)C(=O)N(c3cccc(Cl)c3)C2=O)cc1OC
[10]
  survivor count: 5 of 6

## C=CC1CN2CCC1CC2C(OC(=O)OCCOC(=O)C(=C)C)c1ccnc2ccc(OC)cc12 (configuration not stated)
dose: 25.0 mg/kg/injection, schedule: Q01DX009 (ip), vehicle: saline
  T/C: 86, 93, 100, 101 % of control
[14]
  T/C: 99, 101, 108 % of control
  survivor count: 3 of 6 and 5 of 6
[15]
  T/C: 91 [5 of 6 alive], 100 [4 of 6 alive], 105 [5 of 6 alive], 111 % of control [5 of 6 alive]
  survivor count: 3 of 6
[16]
  T/C: 98 [4 of 6 alive], 99, 107, 129 % of control
  survivor count: 3 of 6

## CC1(C)CC(=O)c2c(ncc3cc4c(cc23)OCO4)C1
dose: 400.0 mg/kg/injection, schedule: Q04DX002 (ip), vehicle: saline with Tween-80
  T/C: 139 % of control

## N=c1nc2ccc3ccccc3c2nn1-c1ccc([N+](=O)[O-])cc1
[10]
  survivor count: 5 of 6
[11]
  survivor count: 6 of 6
[12]
  survivor count: 3 of 6

## COc1cc(C2c3c(oc4ccccc4c3=O)Oc3oc4ccccc4c(=O)c32)cc(OC)c1OC
[5]
  survivor count: 6 of 6

## CN(C)CCC1C2CC3CC(C2)CC1C3 (configuration not stated)
[16]
  survivor count: 0 of 6

## CN(C)/C=C1\C(=O)O[C@H]2CCC[C@@]12C
[17]
  survivor count: 0 of 6

## C1CCC(C2CCCC[N-]2)[N-]C1.C1CCC(C2CCCC[N-]2)[N-]C1.O=S(=O)(O)O.[Cu+2] (configuration not stated)
dose: 100.0 mg/kg/injection, schedule: Q04DX002 (ip), vehicle: Klucel (hydroxypropylcellulose) (HPC)
  survivor count: 0 of 6
dose: 200.0 mg/kg/injection, schedule: Q04DX002 (ip), vehicle: Klucel (hydroxypropylcellulose) (HPC)
  survivor count: 0 of 6
dose: 400.0 mg/kg/injection, schedule: Q04DX002 (ip), vehicle: Klucel (hydroxypropylcellulose) (HPC)
  survivor count: 0 of 6

## O=C(Nc1ccc(C2=NCCCN2)cc1)Nc1cccc(C(=O)Nc2ccc(C3=NCCCN3)cc2)c1
dose: 6.0 mg/kg/injection, schedule: Q01DX009 (ip), vehicle: saline with Tween-80
  T/C: 131 % of control
dose: 12.5 mg/kg/injection, schedule: Q01DX009 (ip), vehicle: saline with Tween-80
  T/C: 140 % of control
dose: 37.5 mg/kg/injection, schedule: Q01DX009 (ip), vehicle: saline with Tween-80
  survivor count: 6 of 6
[8]
  survivor count: 3 of 6
dose: 200.0 mg/kg/injection, schedule: Q04DX003 (ip), vehicle: saline with Tween-80
  survivor count: 1 of 6
dose: 400.0 mg/kg/injection, schedule: Q04DX003 (ip), vehicle: saline with Tween-80
  survivor count: 0 of 6

## C=C1C(=O)O[C@@H]2C[C@@H](C)[C@@H]3CC(=O)OC[C@@]3(C)C[C@H]12
[17]
  survivor count: 2 of 6

## CC(=O)NC1C(OC(C)=O)OC(CS[As](C)C)C(OC(C)=O)C1OC(C)=O (configuration not stated)
[13]
  T/C: 129 % of control
[18]
  T/C: 135 and 136 % of control
[19]
  survivor count: 3 of 6 and 5 of 6

## COc1cc([C@@H]2c3cc4c(cc3[C@H](O)[C@H]3COC(=O)[C@H]23)OCO4)cc(OC)c1OC
dose: 2.0 mg/kg/injection, schedule: Q01DX005 (ip), vehicle: Klucel (hydroxypropylcellulose) (HPC)
  T/C: 130 % of control
dose: 4.0 mg/kg/injection, schedule: Q01DX005 (ip), vehicle: Klucel (hydroxypropylcellulose) (HPC)
  T/C: 128 % of control
dose: 4.0 mg/kg/injection, schedule: Q01DX005 (ip), vehicle: saline with Tween-80
  T/C: 136 % of control
dose: 8.0 mg/kg/injection, schedule: Q01DX005 (ip), vehicle: saline with Tween-80
  survivor count: 4 of 6
dose: 16.0 mg/kg/injection, schedule: Q01DX005 (ip), vehicle: saline with Tween-80
  survivor count: 4 of 6

## CCN(CC)CCN1C(=O)c2cccc3cc(N)cc(c23)C1=O
dose: 3.2 mg/kg/injection, schedule: Q01DX009 (ip), vehicle: saline with Tween-80
  T/C: 127 % of control
[18]
  survivor count: 5 of 6

## C[N+]1(C)CCc2c([nH]c3ccccc23)C1
dose: 400.0 mg/kg/injection, schedule: Q01DX001 (ip), vehicle: suspension in saline
  survivor count: 0 of 6

## CCN(CC)CCCNc1nccc2c(OC)cccc12
dose: 100.0 mg/kg/injection, schedule: Q01DX005 (ip), vehicle: saline
  survivor count: 4 of 5
[9]
  survivor count: 0 of 5

## Cc1ccc[c]([Hg][Cl])c1N=Nc1ccccc1
dose: 38.0 mg/kg/injection, schedule: Q01DX009 (ip), vehicle: saline with Tween-80
  survivor count: 1 of 6
[13]
  survivor count: 0 of 6
[18]
  survivor count: 0 of 6
[19]
  survivor count: 5 of 6

## Clc1cc2nc3[nH]c4ccccc4c3nc2cc1Cl
[20]
  survivor count: 5 of 6

## Cc1cc2ccccc2c[n+]1CCCCCCCCI
[3]
  survivor count: 1 of 5
[4]
  survivor count: 0 of 5

## CCCCCCCCCc1cc(=O)[nH]c(=S)[nH]1
[20]
  survivor count: 6 of 6
